Measured values as given in publication PMC7819943, “Rice protein-binding microarrays: a tool to detect cis-acting elements near promoter regions in rice”.
Some of the results follow.

The chains behind the UniProt entries cited, without tags or fusion partners.
UniProt Q0JBA9, entry or part of it: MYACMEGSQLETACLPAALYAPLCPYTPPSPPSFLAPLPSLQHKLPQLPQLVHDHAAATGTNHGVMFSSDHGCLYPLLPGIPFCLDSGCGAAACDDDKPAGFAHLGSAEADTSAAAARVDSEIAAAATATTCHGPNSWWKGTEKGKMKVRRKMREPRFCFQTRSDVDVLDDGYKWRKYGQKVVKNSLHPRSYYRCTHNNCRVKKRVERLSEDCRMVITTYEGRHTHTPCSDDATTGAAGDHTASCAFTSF

target: OsWRKY34 (Oryza sativa, UniProt Q0JBA9 1-250); experiment: protein-binding microarray (RPBM); PBS, 2% BSA, 51.3 ng/ul salmon testes DNA, 50 uM zinc acetate, 200 nM TF, 25 C, 1 h; high values mean tight binding; conditions: protein: recombinant; tags: N-terminal polyhistidine and DsRed monomer fusion (pET32a); label: CyDye5-dUTP incorporated in the synthesized complementary strand; 3' TTTTT single-stranded linker to array surface; dsDNA, one strand shown
How it was run: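 Transcription factors, each fused N-terminally to a polyhistidine tag and DsRed, were expressed in E. coli BL21-CodonPlus and purified on Ni–NTA. A custom Agilent array was made double-stranded by primer extension with Cy5-dUTP and blocked with 2% BSA. It was incubated with 200 nM protein in PBS, 2% BSA, salmon testes DNA and 50 µM zinc acetate at 25 °C for 1 h, then washed. The binding signal is per-feature fluorescence intensity (arbitrary units) read on an Axon 4000B scanner.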

Sequence | binding signal
TTATATCCTCACCTTCTCTCTCGCATCCTCTCCTGTATATCGGAGTCACCTAGTGCAG | 9430 fluorescence intensity (a.u.)
ATGGGGAGGCGGCGGAGGAGGAGGTCGTGTTCCCGATGGCCGGAGTCACCTAGTGCAG | 8490 fluorescence intensity (a.u.)
ATCTTGTTTGGGCTGGGATGGCTGAACCGTATTGATCTACCGGAGTCACCTAGTGCAG | 11100 fluorescence intensity (a.u.)
ATGCCATTTCTCAATTCCTGGAGCTATCAGATTATCATACCGGAGTCACCTAGTGCAG | 9170 fluorescence intensity (a.u.)
ACCCAACGTTTGATTGTTCGTCTTATTTAATTTTTTTTTACGGAGTCACCTAGTGCAG | 12400 fluorescence intensity (a.u.)
GTTGAGTGTGTATATAAAGGATGTGTGTGCTGCGCTCTGACGGAGTCACCTAGTGCAG | 8810 fluorescence intensity (a.u.)
CTGGGTATGTTATCTTCAGCAACAACTTTATTTACCTTCTCGGAGTCACCTAGTGCAG | 9620 fluorescence intensity (a.u.)
GAACTGAGATCATGTTCATATGTTGTTTTGCCATCGTATTCGGAGTCACCTAGTGCAG | 9140 fluorescence intensity (a.u.)
GGGAGAGGGGAGGGGATTGCCATTGCTGCTGCTGCTAATGCGGAGTCACCTAGTGCAG | 8850 fluorescence intensity (a.u.)
GGGATTTCATATATCTGGTTTTGCGGTTGGGGACGATTTTCGGAGTCACCTAGTGCAG | 12300 fluorescence intensity (a.u.)
GGTTGGATTTCACACCCCGGGACTCCCACATTTTCAAATTCGGAGTCACCTAGTGCAG | 10200 fluorescence intensity (a.u.)
AATTTTGATTTGATTCTGCTGCCTCCGGCGCGCCCCTGATCGGAGTCACCTAGTGCAG | 10300 fluorescence intensity (a.u.)
TACACGCTACCTATCTGACAGTATAAACACTCCATTGTACCGGAGTCACCTAGTGCAG | 9960 fluorescence intensity (a.u.)
TGGAGGGGAGTGGGATCGCGATCACGGGTGGGGCGTCGGACGGAGTCACCTAGTGCAG | 13100 fluorescence intensity (a.u.)
AACAGAGAAGACACTTGATATTGTAAGCTTTGACTAGTTTCGGAGTCACCTAGTGCAG | 8350 fluorescence intensity (a.u.)
AACGTACTAATGCATGACACCGTTGACTTTTTTTCAACGTCGGAGTCACCTAGTGCAG | 40400 fluorescence intensity (a.u.)
AGTCAGTGACATCTATCTTTTCATCGATGTGTCTATTGCCCGGAGTCACCTAGTGCAG | 8640 fluorescence intensity (a.u.)
TATAAACCACATCATCTTAATTGTTCGAACATTTTTTTTCCGGAGTCACCTAGTGCAG | 8560 fluorescence intensity (a.u.)
TCCATTCATTAAGTCTATTCGTTATTTGTGTATTGAAGTACGGAGTCACCTAGTGCAG | 9100 fluorescence intensity (a.u.)
GAGCGCACCACTACTACCTCCCATCGCTGCGGGTTCCCAGCGGAGTCACCTAGTGCAG | 8310 fluorescence intensity (a.u.)
TTCAGTTAATGCTAGTAGTTGCATTTGGTCCAATCTCACACGGAGTCACCTAGTGCAG | 10700 fluorescence intensity (a.u.)

Sequence | binding signal
ACTAAACTTAGAAGTGCATTCTTGGTCCATTCATGCCCTCCGGAGTCACCTAGTGCAG | 8100 fluorescence intensity (a.u.)
CAAAATATTGTATGGTTGTGTCGTATCGCATGTGCATCCGCGGAGTCACCTAGTGCAG | 10100 fluorescence intensity (a.u.)
CGAGATATTCACTTTCTTATAATGTTTTACCACTCATTTTCGGAGTCACCTAGTGCAG | 8600 fluorescence intensity (a.u.)
AGCATGCACAAACACTCCTTTAATTTGCTTTTTATCTGTCCGGAGTCACCTAGTGCAG | 8520 fluorescence intensity (a.u.)
GGGCCTTTTTCTTGTGGTGGTTGTCGTTGTTGTTCATGCCCGGAGTCACCTAGTGCAG | 8680 fluorescence intensity (a.u.)
TCATCTAGCATTATACCAACTTCTATATATGTATCTAGATCGGAGTCACCTAGTGCAG | 8150 fluorescence intensity (a.u.)
CTATCTACTGTAGGGTTGTGCTTGTTGTAGCTCGTAAATCCGGAGTCACCTAGTGCAG | 9130 fluorescence intensity (a.u.)
TGGTTCAAATCTTAACATCCACTAATATTATGCACACATTCGGAGTCACCTAGTGCAG | 10000 fluorescence intensity (a.u.)
GAATTTGCAGGTTTAGCCACAGTACGCGTGCGTTGTGTTCCGGAGTCACCTAGTGCAG | 8160 fluorescence intensity (a.u.)
GCATCGCCGTGTTCTTCACTTCTTCCCATCCGTCCACTTCCGGAGTCACCTAGTGCAG | 8680 fluorescence intensity (a.u.)
GTTTTTCAGCCGTGATATGTTTTTGTGATGTTTATCATTTCGGAGTCACCTAGTGCAG | 9520 fluorescence intensity (a.u.)
ATTCTGCAACTGTTCATCGCTGTTCCTAAATCTGATTTCACGGAGTCACCTAGTGCAG | 11400 fluorescence intensity (a.u.)
GGTTAGGTTAGGTTACCAGCTCAAGATGTCTTAATCTTTTCGGAGTCACCTAGTGCAG | 9160 fluorescence intensity (a.u.)
GTGGGTTTTAAAGTTCATTCTCTTTTGGAAATACAGATCCCGGAGTCACCTAGTGCAG | 12600 fluorescence intensity (a.u.)
GTTGCTGTTGCTAACTTGATTTTTTTTCTTCTATTGCTCACGGAGTCACCTAGTGCAG | 8560 fluorescence intensity (a.u.)
CACCGTCCGTCCGATGCCTCCCCGTTCTCGCGCCCATCGACGGAGTCACCTAGTGCAG | 8450 fluorescence intensity (a.u.)
CGTTTTGCTATGCGCCTATGCCATGATATAAAAATAAAACCGGAGTCACCTAGTGCAG | 8170 fluorescence intensity (a.u.)
GAAGGGCTCGGGTTGGATGGCATATACTGAAAATTCTCATCGGAGTCACCTAGTGCAG | 8070 fluorescence intensity (a.u.)
GCTCACCTCCACCTCCACCTCACCTCCTCCTCCTCCTCATCGGAGTCACCTAGTGCAG | 10200 fluorescence intensity (a.u.)
GATGTTTTTTTTCCTTCAAATTTTCTGTTCATGCGTATCTCGGAGTCACCTAGTGCAG | 8900 fluorescence intensity (a.u.)
CTCTCTATATATAGCTCTCGTCTTCTTCCACCTCTCACTCCGGAGTCACCTAGTGCAG | 9300 fluorescence intensity (a.u.)

Shown with tabs: entries from further up
Sequence	binding signal
GAGCGCACCACTACTACCTCCCATCGCTGCGGGTTCCCAGCGGAGTCACCTAGTGCAG	8310 fluorescence intensity (a.u.)
TTCAGTTAATGCTAGTAGTTGCATTTGGTCCAATCTCACACGGAGTCACCTAGTGCAG	10700 fluorescence intensity (a.u.)
ACTAAACTTAGAAGTGCATTCTTGGTCCATTCATGCCCTCCGGAGTCACCTAGTGCAG	8100 fluorescence intensity (a.u.)
CAAAATATTGTATGGTTGTGTCGTATCGCATGTGCATCCGCGGAGTCACCTAGTGCAG	10100 fluorescence intensity (a.u.)
CGAGATATTCACTTTCTTATAATGTTTTACCACTCATTTTCGGAGTCACCTAGTGCAG	8600 fluorescence intensity (a.u.)
AGCATGCACAAACACTCCTTTAATTTGCTTTTTATCTGTCCGGAGTCACCTAGTGCAG	8520 fluorescence intensity (a.u.)
GGGCCTTTTTCTTGTGGTGGTTGTCGTTGTTGTTCATGCCCGGAGTCACCTAGTGCAG	8680 fluorescence intensity (a.u.)
TCATCTAGCATTATACCAACTTCTATATATGTATCTAGATCGGAGTCACCTAGTGCAG	8150 fluorescence intensity (a.u.)
CTATCTACTGTAGGGTTGTGCTTGTTGTAGCTCGTAAATCCGGAGTCACCTAGTGCAG	9130 fluorescence intensity (a.u.)
TGGTTCAAATCTTAACATCCACTAATATTATGCACACATTCGGAGTCACCTAGTGCAG	10000 fluorescence intensity (a.u.)
GAATTTGCAGGTTTAGCCACAGTACGCGTGCGTTGTGTTCCGGAGTCACCTAGTGCAG	8160 fluorescence intensity (a.u.)
GCATCGCCGTGTTCTTCACTTCTTCCCATCCGTCCACTTCCGGAGTCACCTAGTGCAG	8680 fluorescence intensity (a.u.)
GTTTTTCAGCCGTGATATGTTTTTGTGATGTTTATCATTTCGGAGTCACCTAGTGCAG	9520 fluorescence intensity (a.u.)

(listing goes on)

Sequence | binding signal
GCCTGAAATCCTGAATCCACATCATTCTATAGTCCCTGTCCGGAGTCACCTAGTGCAG | 9240 fluorescence intensity (a.u.)
TTGGTATGTCTGCACTGTGCTCTGTGGATCATGTTCTCCGCGGAGTCACCTAGTGCAG | 10800 fluorescence intensity (a.u.)
GCTTTGTTAGGCTTCTATGTCTTGCTTTGCTAAAACCAAACGGAGTCACCTAGTGCAG | 10300 fluorescence intensity (a.u.)
TCTAGATTCACTAATGTTTATATAAATTTGGACACATATACGGAGTCACCTAGTGCAG | 8070 fluorescence intensity (a.u.)
TTGCTTGCCTGACACATTACATAACTTGCAGTACCTTGATCGGAGTCACCTAGTGCAG | 8130 fluorescence intensity (a.u.)
GAGAACCTAATTGTGAGGCTCCTAGTTACACGACAAATCACGGAGTCACCTAGTGCAG | 56300 fluorescence intensity (a.u.)
TGACTCTCTCCGCATCGGTTATACTACGCGCCCAACCTCCCGGAGTCACCTAGTGCAG | 9930 fluorescence intensity (a.u.)
AGTCTAAGTGGACTTTTTCCTTACTGCTTAATTATACTCACGGAGTCACCTAGTGCAG | 8340 fluorescence intensity (a.u.)
GGTTCGATCTCTTTCGTTAGGTTAATTCAGGCTTGATGATCGGAGTCACCTAGTGCAG | 9100 fluorescence intensity (a.u.)
TTCATAGGCTTTGTGGTGGTGCTCGATTGGATAATTCTTCCGGAGTCACCTAGTGCAG | 8510 fluorescence intensity (a.u.)
TGTGTCCATTGATTTATGATTGCCCATTTTTATCAGATAACGGAGTCACCTAGTGCAG | 9360 fluorescence intensity (a.u.)
CTAATCACGTTTTGGCGATTTAGTCTTCTCTCTTCTCTCTCGGAGTCACCTAGTGCAG | 9750 fluorescence intensity (a.u.)
TCCAGTTTTGGTCTGGGTGATGTGTCATGTTCTGATTGGCCGGAGTCACCTAGTGCAG | 8180 fluorescence intensity (a.u.)
CTTTTACTTTGTCATTACTTGGTATATCCACAGTTTGTCTCGGAGTCACCTAGTGCAG | 10700 fluorescence intensity (a.u.)
ATTTATGGTTTCTTCATTGATTTTCTGCACAAGCAAGCATCGGAGTCACCTAGTGCAG | 8070 fluorescence intensity (a.u.)
TTCTGTTGTTTTACTTTGGTTGACCCAAGTATGAAGCTTTCGGAGTCACCTAGTGCAG | 9610 fluorescence intensity (a.u.)
TATTTTATGTGTGACTAACTTATTTTAATTTTCTCATAAACGGAGTCACCTAGTGCAG | 8380 fluorescence intensity (a.u.)
CGTCTCCTGATCAAACGATCAACTTCGTTTCACGGTTTCACGGAGTCACCTAGTGCAG | 8450 fluorescence intensity (a.u.)
GCTAGACTATCATCAGCAAGCTAGCAATTAAAGGCCTTGTCGGAGTCACCTAGTGCAG | 64200 fluorescence intensity (a.u.)
TTGGCTGACTTCTCGCCGCAGCCGGTCACATCACGCGTCCCGGAGTCACCTAGTGCAG | 8020 fluorescence intensity (a.u.)
GTGGGCATGATTTTCTTCTGTTTTCTCGTTTTAATTTTTTCGGAGTCACCTAGTGCAG | 20100 fluorescence intensity (a.u.)

Sequence | binding signal
TACTTTTTATATTTCTTTTGCTAACTAGGGTGCCACGTCACGGAGTCACCTAGTGCAG | 8250 fluorescence intensity (a.u.)
TTAGACAAAAAGTCAACGGCATCATACATTAAAATATGGACGGAGTCACCTAGTGCAG | 12400 fluorescence intensity (a.u.)
TCAAACGATGCCATTCACCACGTGCCACTTTATATCAAACCGGAGTCACCTAGTGCAG | 11700 fluorescence intensity (a.u.)
AGGGTTTTGATTTCCTATGTTAGATAGATGGGGTTGCGAGCGGAGTCACCTAGTGCAG | 8620 fluorescence intensity (a.u.)
ATTAATCCCTCACTTGGGAACAAATCTACCTGCCTATATTCGGAGTCACCTAGTGCAG | 9500 fluorescence intensity (a.u.)
AGGTTCAGTATATTTTTTGTCAGCTGATCATCGCCTAGATCGGAGTCACCTAGTGCAG | 9230 fluorescence intensity (a.u.)
TGCCACCACGCCCTTCATCGCCCAATCGCCGTCCCTGAGCCGGAGTCACCTAGTGCAG | 8790 fluorescence intensity (a.u.)
ATTCAGTCTGCAACTCTGCATGGCGCACACTTCCATTCATCGGAGTCACCTAGTGCAG | 10400 fluorescence intensity (a.u.)
TAAGTAAAACCTACTTTTCCTCCTTCCGCTTCTCAGTCCACGGAGTCACCTAGTGCAG | 8990 fluorescence intensity (a.u.)
CCGGTCGCCTCTGGTCGTGGTGCCCGCGAAATTTGACCGTCGGAGTCACCTAGTGCAG | 8370 fluorescence intensity (a.u.)
GGCCCACCTGTCATACCTATCCTCAAACCAATCTGCCAATCGGAGTCACCTAGTGCAG | 8360 fluorescence intensity (a.u.)
AAGCCCATAAAGATTCCGTCACTCGGAATCTTCAATCTTGCGGAGTCACCTAGTGCAG | 8320 fluorescence intensity (a.u.)
TCAATCAAACGGTTATTTATGTGTTTTTTCTACTTTTTATCGGAGTCACCTAGTGCAG | 11000 fluorescence intensity (a.u.)
TCCCAACAAACTCATCACATGCTCTCCTTGTTTGTTGCAACGGAGTCACCTAGTGCAG | 9570 fluorescence intensity (a.u.)
ACCTCTCGCTCCACTCAGCCGCCGCCCCTCGCCGTCGCCGCGGAGTCACCTAGTGCAG | 8080 fluorescence intensity (a.u.)
GCCACTCACTCGCTGCACACTAGTCCTTCAGTTTCAGTCCCGGAGTCACCTAGTGCAG | 10800 fluorescence intensity (a.u.)
CGAGATCAAAATTAATCTTTCCGTACCCGTTGCATACTCCCGGAGTCACCTAGTGCAG | 9110 fluorescence intensity (a.u.)
ACCCGTTTTGGTTGACTTGTGTTGACCTAGCCGAGTGACTCGGAGTCACCTAGTGCAG | 11000 fluorescence intensity (a.u.)
GAAATCATCATGCATGCTTACTCTGTCCATCACCACTTGACGGAGTCACCTAGTGCAG | 9130 fluorescence intensity (a.u.)
GCGGAATGGGCGGCGGTGGAGGTGGCGGGTTTGGAGGCGGCGGAGTCACCTAGTGCAG | 16700 fluorescence intensity (a.u.)
CCATTGTTCCCTTTATAACCTGTGTTTTCCACCATATAATCGGAGTCACCTAGTGCAG | 10300 fluorescence intensity (a.u.)
